Data: publication PMC2903597

How the values were obtained:
Assay in all cases: co-IP; FLAG- and GFP-tagged proteins coexpressed in HEK293 cells, immunoprecipitation with anti-FLAG antibody, Western blotting with anti-FLAG and anti-GFP antibodies
[1] = target: T1, FLAG-mLgl2-WT (UniProt Q3TJ91)
T1 sequence: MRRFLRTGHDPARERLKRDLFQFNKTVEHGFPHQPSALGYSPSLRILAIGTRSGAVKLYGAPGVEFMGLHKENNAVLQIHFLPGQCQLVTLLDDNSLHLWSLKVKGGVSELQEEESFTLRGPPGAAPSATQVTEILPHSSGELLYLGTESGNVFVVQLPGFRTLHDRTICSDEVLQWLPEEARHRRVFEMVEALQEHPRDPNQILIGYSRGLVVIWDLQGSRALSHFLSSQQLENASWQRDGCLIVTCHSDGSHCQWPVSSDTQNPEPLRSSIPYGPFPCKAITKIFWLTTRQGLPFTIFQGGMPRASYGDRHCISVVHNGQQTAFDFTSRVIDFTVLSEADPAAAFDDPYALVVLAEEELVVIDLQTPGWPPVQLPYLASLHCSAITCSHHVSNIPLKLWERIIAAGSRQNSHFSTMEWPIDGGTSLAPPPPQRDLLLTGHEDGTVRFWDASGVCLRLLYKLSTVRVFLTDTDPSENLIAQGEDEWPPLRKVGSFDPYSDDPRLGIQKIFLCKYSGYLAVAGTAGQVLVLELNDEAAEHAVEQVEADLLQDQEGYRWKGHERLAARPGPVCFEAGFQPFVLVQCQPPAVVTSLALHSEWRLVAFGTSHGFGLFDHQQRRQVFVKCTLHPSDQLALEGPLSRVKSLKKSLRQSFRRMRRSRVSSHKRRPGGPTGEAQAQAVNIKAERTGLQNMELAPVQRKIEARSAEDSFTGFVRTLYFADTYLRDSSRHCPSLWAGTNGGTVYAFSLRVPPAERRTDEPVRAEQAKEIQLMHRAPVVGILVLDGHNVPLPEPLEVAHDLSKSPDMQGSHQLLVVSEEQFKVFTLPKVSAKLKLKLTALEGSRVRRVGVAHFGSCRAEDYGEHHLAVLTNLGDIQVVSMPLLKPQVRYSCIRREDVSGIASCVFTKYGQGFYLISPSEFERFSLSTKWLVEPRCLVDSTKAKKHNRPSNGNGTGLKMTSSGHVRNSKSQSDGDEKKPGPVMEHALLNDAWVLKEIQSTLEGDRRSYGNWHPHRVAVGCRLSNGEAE

[2] = target: T2, FLAG-mLgl1 (UniProt Q80Y17)
T2 sequence: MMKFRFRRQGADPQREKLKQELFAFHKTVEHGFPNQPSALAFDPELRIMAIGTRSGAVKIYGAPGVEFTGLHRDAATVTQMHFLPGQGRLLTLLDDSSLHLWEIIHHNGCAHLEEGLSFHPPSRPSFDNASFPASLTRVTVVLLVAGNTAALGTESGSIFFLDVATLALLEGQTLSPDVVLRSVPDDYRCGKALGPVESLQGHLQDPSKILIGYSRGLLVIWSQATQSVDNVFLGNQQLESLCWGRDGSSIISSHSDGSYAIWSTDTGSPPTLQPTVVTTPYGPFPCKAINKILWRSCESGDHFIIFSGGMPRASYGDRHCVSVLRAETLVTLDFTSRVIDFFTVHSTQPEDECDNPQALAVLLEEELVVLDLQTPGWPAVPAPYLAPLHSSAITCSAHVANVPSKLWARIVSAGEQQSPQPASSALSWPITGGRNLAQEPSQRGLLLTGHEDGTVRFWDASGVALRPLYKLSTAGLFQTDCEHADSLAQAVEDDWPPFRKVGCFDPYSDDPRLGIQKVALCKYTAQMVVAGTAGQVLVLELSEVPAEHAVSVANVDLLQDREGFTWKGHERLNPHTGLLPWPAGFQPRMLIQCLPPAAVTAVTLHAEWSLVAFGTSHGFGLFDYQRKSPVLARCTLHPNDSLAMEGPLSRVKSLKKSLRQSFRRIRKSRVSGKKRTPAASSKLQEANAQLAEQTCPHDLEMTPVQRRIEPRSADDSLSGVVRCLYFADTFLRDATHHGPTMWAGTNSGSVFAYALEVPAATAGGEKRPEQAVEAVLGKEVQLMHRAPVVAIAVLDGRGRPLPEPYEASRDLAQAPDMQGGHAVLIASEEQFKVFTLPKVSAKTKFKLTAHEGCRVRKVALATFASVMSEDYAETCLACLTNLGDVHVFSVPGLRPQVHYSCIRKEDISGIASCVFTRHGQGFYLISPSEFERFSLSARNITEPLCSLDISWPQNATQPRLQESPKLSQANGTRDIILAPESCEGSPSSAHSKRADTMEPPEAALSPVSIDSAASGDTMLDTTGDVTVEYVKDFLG

[3] = target: T3, FLAG-mLgl2-C (UniProt Q3TJ91)
T3 sequence: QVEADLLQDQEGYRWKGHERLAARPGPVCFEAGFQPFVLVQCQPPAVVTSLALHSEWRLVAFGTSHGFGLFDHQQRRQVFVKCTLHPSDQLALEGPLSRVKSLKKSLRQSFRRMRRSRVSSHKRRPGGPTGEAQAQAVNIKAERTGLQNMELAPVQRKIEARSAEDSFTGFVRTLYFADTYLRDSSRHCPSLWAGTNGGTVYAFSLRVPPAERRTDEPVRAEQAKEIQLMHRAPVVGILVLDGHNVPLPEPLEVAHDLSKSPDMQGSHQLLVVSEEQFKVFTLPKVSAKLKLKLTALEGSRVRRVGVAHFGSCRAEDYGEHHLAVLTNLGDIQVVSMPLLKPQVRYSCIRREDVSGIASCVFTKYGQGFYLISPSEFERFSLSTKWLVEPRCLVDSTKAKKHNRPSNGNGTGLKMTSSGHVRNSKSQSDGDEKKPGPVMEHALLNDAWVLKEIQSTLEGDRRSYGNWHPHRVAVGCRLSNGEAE

Measured: binding

GFP-VprBP-WT (GFP-tagged shorter VprBP isoform) (human)
binds: all assays above

These are yes or no findings as the source states them, for the method shown. Binding seen in cells or lysates may run through a third protein. A result given as binding can be weak or reduced; the word gives no strength. Tags and fused reporters may be left off the sequences shown.
